Paper PMC11282289, “Serial X-ray liquidography: multi-dimensional assay framework for exploring biomolecular structural dynamics with microgram quantities” (Nature Communications, 2024)
These are yes or no findings as the source states them, for the method shown.

Tests used:
[1] = target: monomeric mutant of AtUVR8 (AtUVR8-R146A/R286A), residues 12-381 (Arabidopsis thaliana) (UniProt Q9FN03); assay: static small angle X-ray scattering (SAXS); conventional static SAXS, flow cell, no laser (ground state); difference scattering between wild type and monomeric mutant; 25 mM Tris pH 7.5, 100 mM NaCl, 2 mM DTT; both purified
[2] = target: Arabidopsis thaliana UV-B resistance 8 (AtUVR8), wild type, residues 12-381 (Arabidopsis thaliana) (UniProt Q9FN03); assay: time-resolved X-ray solution scattering (serial X-ray liquidography, SXL); AtUVR8 at 0.1 and 0.3 mM in SXL chip microchambers; 300 nm laser pulse (0.8 mJ/mm^2), delays 10 us to 316 ms; 25 mM Tris pH 7.5, 100 mM NaCl, 2 mM DTT; both purified

binding [1]	Binder	binding [2]
no binding	monomeric mutant of AtUVR8 (AtUVR8-R146A/R286A), residues 12-381 (domain or fragment, UniProt Q9FN03 12-381) APPRKVLIISAGASHSVALLSGDIVCSWGRGEDGQLGHGDAEDRPSPTQLSALDGHQIVSVTCGADHTVAYSQSGMEVYSWGWGDFGRLGHGNSSDLFTPLPIKALHGIRIKQIACGDSHCLAVTMEGEVQSWGANQNGQLGLGDTEDSLVPQKIQAFEGIRIKMVAAGAEHTAAVTEDGDLYGWGWGRYGNLGLGDRTDRLVPERVTSTGGEKMSMVACGWRHTISVSYSGALYTYGWSKYGQLGHGDLEDHLIPHKLEALSNSFISQISGGWAHTMALTSDGKLYGWGWNKFGQVGVGNNLDQCSPVQVRFPDDQKVVQVSCGWRHTLAVTERNNVFAWGRGTNGQLGIGESVDRNFPKIIEALSVDG	–
–	Arabidopsis thaliana UV-B resistance 8 (AtUVR8), wild type, residues 12-381 (domain or fragment, UniProt Q9FN03 12-381, looked up, UV-B resistance 8 (UVR8), Arabidopsis thaliana, residues 12-381; Homodimer in the dark (ground) state; also called 2M-T-AtUVR8-His; source: E. coli BL21(DE3) GOLD, purified (IMAC, TEV cleavage, Q-Sepharose, MBPTrap flow-through); not shown: MBP-His-tag, N-terminal, cleaved) APPRKVLIISAGASHSVALLSGDIVCSWGRGEDGQLGHGDAEDRPSPTQLSALDGHQIVSVTCGADHTVAYSQSGMEVYSWGWGDFGRLGHGNSSDLFTPLPIKALHGIRIKQIACGDSHCLAVTMEGEVQSWGRNQNGQLGLGDTEDSLVPQKIQAFEGIRIKMVAAGAEHTAAVTEDGDLYGWGWGRYGNLGLGDRTDRLVPERVTSTGGEKMSMVACGWRHTISVSYSGALYTYGWSKYGQLGHGDLEDHLIPHKLEALSNSFISQISGGWRHTMALTSDGKLYGWGWNKFGQVGVGNNLDQCSPVQVRFPDDQKVVQVSCGWRHTLAVTERNNVFAWGRGTNGQLGIGESVDRNFPKIIEALSVDG	no binding (condition: after a 300 nm (UV-B) laser pulse)
